Assay results reported in the supplement of paper PMC10849652.
The list shows a part of the results.

Chains of the proteins cited; added tags and fusions are not shown. Lines headed by an entry give the natural chain unless they say otherwise; changes in a name come on top.
UniProt Q96EU6: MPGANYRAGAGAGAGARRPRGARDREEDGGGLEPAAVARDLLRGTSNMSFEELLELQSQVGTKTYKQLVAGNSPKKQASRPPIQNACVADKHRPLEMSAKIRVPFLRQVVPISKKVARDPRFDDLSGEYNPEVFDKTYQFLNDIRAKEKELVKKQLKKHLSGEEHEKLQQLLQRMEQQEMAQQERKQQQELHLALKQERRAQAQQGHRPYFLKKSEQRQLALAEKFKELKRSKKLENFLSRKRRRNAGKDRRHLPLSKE
UniProt O14521: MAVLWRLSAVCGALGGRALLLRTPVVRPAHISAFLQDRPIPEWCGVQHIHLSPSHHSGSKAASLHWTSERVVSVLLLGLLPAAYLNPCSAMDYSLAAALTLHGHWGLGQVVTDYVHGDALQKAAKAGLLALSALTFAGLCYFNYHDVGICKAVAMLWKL
UniProt O15127: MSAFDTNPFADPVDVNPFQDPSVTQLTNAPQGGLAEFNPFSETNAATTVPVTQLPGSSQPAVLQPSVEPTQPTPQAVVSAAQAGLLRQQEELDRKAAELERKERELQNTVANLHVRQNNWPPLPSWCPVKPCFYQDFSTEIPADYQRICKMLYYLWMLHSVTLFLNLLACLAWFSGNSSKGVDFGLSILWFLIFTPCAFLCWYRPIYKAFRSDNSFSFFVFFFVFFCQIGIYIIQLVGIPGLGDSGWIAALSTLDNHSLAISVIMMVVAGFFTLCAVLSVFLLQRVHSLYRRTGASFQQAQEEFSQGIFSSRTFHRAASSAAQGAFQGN
UniProt Q9NRG7: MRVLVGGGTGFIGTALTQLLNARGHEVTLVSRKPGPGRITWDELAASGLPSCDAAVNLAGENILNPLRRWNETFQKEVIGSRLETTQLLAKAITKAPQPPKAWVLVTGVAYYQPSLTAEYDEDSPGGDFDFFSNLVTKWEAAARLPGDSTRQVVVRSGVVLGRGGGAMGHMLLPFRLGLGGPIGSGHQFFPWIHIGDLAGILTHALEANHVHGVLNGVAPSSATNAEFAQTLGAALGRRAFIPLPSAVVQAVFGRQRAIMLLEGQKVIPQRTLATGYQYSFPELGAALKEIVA
UniProt Q5VUM1: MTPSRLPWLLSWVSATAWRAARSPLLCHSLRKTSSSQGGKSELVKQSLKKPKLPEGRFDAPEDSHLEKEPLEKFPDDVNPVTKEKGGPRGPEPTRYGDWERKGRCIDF
UniProt Q7L4I2: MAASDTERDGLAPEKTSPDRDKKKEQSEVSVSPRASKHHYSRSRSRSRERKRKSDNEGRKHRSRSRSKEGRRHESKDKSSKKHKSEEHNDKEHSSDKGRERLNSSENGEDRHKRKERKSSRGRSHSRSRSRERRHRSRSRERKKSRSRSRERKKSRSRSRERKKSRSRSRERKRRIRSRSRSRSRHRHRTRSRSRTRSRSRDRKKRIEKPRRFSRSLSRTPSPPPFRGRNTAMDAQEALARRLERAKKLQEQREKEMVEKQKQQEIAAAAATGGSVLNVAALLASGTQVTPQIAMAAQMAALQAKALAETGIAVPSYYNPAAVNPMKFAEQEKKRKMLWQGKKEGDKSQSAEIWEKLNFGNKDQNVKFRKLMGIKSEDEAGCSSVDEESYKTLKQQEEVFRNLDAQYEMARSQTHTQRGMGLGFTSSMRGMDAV
UniProt Q8N9R8: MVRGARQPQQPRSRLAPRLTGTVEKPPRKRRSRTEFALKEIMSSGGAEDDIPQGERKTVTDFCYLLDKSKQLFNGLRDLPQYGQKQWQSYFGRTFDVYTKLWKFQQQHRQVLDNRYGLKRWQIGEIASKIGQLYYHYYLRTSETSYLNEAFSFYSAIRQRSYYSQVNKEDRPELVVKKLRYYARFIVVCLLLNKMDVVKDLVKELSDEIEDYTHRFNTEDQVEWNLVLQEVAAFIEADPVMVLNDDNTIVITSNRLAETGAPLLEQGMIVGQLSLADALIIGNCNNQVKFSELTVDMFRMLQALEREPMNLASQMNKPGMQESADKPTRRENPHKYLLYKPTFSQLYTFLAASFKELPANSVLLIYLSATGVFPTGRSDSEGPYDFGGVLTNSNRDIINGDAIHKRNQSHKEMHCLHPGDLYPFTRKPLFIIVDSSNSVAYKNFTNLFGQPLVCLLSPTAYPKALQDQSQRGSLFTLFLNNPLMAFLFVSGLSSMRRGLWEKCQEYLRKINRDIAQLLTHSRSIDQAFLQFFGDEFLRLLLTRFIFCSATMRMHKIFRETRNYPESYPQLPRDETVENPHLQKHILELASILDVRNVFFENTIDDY
UniProt O95969: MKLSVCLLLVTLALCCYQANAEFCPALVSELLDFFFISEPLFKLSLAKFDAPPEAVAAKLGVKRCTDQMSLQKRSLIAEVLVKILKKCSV
UniProt Q96IW7: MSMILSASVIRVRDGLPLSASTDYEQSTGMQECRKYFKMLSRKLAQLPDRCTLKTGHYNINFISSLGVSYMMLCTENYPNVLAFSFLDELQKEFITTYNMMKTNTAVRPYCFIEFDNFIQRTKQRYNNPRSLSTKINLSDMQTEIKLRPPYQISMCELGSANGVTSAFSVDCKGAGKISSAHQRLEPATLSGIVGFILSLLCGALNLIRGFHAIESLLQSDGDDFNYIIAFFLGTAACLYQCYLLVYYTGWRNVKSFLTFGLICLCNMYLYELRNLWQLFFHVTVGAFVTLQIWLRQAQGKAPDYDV
UniProt P26447: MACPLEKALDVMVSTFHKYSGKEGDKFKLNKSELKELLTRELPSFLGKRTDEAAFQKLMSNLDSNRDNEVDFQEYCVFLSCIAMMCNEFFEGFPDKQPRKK
UniProt Q96T23: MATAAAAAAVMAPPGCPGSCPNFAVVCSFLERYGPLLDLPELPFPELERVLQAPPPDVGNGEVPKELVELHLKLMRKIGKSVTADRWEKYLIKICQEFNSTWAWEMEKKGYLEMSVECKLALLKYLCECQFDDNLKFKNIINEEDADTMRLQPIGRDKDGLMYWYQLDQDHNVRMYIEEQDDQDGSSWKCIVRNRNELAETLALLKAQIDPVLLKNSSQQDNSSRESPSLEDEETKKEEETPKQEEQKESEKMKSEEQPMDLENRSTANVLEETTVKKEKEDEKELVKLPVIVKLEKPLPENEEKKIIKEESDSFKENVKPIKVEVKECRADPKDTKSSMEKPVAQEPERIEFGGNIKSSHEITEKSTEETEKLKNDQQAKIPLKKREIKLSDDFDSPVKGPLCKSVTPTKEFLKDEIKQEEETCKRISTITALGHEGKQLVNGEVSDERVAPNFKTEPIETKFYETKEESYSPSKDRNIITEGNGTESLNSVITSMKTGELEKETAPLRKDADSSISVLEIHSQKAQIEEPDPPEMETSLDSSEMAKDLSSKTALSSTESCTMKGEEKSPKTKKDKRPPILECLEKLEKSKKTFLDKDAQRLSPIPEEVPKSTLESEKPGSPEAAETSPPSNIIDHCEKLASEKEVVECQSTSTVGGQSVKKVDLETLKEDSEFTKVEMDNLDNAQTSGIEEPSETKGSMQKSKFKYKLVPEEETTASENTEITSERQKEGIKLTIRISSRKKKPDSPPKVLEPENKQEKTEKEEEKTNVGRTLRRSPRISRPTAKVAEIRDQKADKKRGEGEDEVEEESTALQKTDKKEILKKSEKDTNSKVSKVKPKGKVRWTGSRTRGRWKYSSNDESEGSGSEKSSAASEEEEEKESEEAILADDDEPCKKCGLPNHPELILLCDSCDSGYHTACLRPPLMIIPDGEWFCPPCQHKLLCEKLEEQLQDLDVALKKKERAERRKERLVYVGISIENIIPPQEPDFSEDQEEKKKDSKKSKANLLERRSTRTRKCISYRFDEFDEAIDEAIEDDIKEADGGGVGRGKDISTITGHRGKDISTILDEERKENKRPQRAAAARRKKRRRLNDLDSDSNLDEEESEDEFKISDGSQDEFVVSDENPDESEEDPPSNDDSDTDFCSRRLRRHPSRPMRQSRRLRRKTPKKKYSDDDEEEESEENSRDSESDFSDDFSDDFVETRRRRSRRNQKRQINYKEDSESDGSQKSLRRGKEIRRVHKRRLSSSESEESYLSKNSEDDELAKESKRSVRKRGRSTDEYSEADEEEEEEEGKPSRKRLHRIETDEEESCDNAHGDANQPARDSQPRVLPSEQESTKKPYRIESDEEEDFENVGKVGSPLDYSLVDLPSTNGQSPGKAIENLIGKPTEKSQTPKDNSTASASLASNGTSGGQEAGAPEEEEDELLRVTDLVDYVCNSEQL
UniProt P29034: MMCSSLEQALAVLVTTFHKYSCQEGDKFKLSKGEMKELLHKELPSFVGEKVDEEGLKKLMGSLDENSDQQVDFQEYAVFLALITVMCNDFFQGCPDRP
UniProt O95104: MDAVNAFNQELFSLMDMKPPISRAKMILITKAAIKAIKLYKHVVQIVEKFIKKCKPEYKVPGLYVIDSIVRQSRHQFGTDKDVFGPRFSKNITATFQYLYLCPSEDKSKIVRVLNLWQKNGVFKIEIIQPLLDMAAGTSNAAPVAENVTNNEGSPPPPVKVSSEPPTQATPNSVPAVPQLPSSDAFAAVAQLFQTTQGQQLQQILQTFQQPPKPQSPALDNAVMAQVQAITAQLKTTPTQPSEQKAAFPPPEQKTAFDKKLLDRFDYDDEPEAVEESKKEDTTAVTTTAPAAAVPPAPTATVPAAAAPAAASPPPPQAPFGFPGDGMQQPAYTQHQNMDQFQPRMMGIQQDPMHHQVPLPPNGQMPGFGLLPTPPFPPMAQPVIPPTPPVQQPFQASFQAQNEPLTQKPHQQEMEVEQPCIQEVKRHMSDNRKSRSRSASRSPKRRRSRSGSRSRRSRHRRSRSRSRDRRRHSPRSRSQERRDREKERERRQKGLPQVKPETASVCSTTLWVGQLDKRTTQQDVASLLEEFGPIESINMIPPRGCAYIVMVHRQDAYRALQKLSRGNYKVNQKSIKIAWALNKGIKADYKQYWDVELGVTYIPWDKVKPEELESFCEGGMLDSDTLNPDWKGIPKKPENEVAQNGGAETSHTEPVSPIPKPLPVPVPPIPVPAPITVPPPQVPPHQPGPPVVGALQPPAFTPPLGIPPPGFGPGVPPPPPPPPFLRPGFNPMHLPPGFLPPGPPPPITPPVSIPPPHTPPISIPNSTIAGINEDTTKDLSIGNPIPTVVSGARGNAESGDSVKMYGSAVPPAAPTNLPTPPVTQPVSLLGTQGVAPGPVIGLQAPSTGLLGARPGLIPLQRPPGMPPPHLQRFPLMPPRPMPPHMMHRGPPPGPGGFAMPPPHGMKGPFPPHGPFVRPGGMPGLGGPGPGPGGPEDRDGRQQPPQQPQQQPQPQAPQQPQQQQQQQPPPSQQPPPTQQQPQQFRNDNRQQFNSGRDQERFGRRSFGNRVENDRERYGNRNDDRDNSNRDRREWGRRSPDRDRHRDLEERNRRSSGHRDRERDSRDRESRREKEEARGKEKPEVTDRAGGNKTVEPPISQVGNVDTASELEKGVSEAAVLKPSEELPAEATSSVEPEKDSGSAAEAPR
UniProt Q96DX4: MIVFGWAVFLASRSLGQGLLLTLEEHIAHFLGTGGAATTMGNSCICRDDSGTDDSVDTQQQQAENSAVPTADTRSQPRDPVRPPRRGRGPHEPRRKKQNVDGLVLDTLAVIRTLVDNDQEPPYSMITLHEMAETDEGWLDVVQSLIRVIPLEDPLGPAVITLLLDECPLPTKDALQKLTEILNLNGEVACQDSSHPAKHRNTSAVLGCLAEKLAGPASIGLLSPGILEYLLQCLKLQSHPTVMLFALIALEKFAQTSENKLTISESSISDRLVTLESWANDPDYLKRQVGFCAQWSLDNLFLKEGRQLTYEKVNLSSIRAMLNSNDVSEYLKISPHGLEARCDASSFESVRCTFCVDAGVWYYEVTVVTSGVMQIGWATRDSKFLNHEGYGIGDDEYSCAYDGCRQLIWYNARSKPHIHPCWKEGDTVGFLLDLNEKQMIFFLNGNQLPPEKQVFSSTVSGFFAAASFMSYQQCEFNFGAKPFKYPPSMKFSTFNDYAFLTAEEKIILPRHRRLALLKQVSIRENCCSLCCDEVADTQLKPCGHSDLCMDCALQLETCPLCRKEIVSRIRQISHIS
UniProt Q9NX18: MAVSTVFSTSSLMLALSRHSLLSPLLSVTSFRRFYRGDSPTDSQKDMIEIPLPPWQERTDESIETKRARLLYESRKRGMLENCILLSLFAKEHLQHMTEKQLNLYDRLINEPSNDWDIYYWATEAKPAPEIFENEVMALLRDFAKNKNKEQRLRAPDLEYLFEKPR
UniProt Q7L099: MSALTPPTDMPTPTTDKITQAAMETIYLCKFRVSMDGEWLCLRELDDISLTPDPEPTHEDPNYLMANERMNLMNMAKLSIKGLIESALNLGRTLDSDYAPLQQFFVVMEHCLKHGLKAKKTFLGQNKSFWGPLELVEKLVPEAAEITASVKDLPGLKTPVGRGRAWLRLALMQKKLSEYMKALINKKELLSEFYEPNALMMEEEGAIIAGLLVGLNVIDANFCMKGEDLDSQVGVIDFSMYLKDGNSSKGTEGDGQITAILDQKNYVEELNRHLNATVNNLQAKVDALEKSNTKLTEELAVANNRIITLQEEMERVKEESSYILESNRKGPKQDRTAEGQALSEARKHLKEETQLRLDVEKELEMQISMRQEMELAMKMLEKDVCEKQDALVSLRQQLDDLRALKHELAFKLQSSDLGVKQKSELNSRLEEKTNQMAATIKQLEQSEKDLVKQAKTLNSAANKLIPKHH

compound: C#Cc1cccc(Nc2ncnc3cc(OCCOC)c(OCCOC)cc23)c1 [erlotinib]; test: log2 fold change, soluble protein after heating vs DMSO (PISA); higher = thermal stabilisation; K562 cells, 10 uM, 30 min; active = over 0.2 and 3.5 SD of the protein, either way, in both replicates (recomputed)
Summary of the method: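 Thermal stability values are relative to control samples and come from duplicates. They are expressed as log2 fold changes. For measurement, K562 cells (2×10^6 cells/mL) received 10 μM compound for 30 min, and aliquots were heated for 3 min over 48°C-58°C, pooled, and extracted at 4°C in PBS with 0.5% NP-40. Soluble protein, the supernatant after 21,000xg for 90 min, was quantified by TMTpro 16plex LC-MS/MS with equalised channel sums.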

Target | log2 fold change
RRP36 (UniProt Q96EU6) | inactive: -0.192
SCAMP2 (UniProt H3BUB6) | inactive: 0.182
SDHD (UniProt O14521) | inactive: -0.107
SCG3 (UniProt Q8WXD2) | inactive: -0.076
SCYL3 isoform 2 (UniProt Q8IZE3) | inactive: 0.046
SCAMP2 (UniProt O15127) | inactive: 0.014
SDHB, A0A087WXX8 | inactive: 0.155
SDR39U1 (UniProt Q9NRG7) | inactive: 0.855
RTF2 (UniProt Q9BY42) | inactive: 0.026
SDCCAG8 (UniProt Q86SQ7) | inactive: 0.237
SDHAF4 (UniProt Q5VUM1) | inactive: 0
RSRC2 (UniProt Q7L4I2) | inactive: 0.023
SCAI isoform 2 (UniProt Q8N9R8) | inactive: -0.094
SCGB1D2 (UniProt O95969) | inactive: 0.526
RUNX1 isoform 8 (UniProt Q01196) | inactive: 0.122
SEC22A (UniProt Q96IW7) | inactive: 0.014

Target | log2 fold change
S100A4 (UniProt P26447) | inactive: -0.065
SACM1L (UniProt Q9NTJ5) | inactive: 0.005
RSF1 (UniProt Q96T23) | inactive: 0.034
SAMD4B (UniProt Q5PRF9) | inactive: -0.117
SAP30 (UniProt O75446) | inactive: -0.04
SDHB, A0A087WWT1 | inactive: 0.04
S100A2 (UniProt P29034) | inactive: 0.711
RWDD2B (UniProt P57060) | inactive: 0.141
SCAF4 (UniProt O95104) | inactive: 0.153
RSPRY1 (UniProt Q96DX4) | inactive: 0.028
S100A14 (UniProt Q9HCY8) | inactive: 0.404
SC5D (UniProt O75845) | inactive: -0.021
RSL24D1 (UniProt Q9UHA3) | inactive: -0.547
SDHAF2 (UniProt Q9NX18) | inactive: -0.021
RUFY3 isoform 3 (UniProt Q7L099) | inactive: 0.019
RTN4 isoform 5 (UniProt Q9NQC3) | inactive: 0.342

Shown as a markdown table: part of the list above

| Target | log2 fold change |
| --- | --- |
| SDHB, A0A087WXX8 | inactive: 0.155 |
| SDR39U1 (UniProt Q9NRG7) | inactive: 0.855 |
